Data on 54 molecules can be found in PubChem BioAssay AID743402 (Broad Institute, 2014).

The campaign covered roughly 1,200 compounds. About 140 (12%) were called active.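 The calls were made as follows: active = fitted curve falls past -35% activity change at a dose under twice the top valid dose, in every replicate test; inconclusive = replicate tests disagree on the call; inactive = the rest, including activity in the opposite direction.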 The list lacks most of the strong results.

This assay in a line: CFTR-F508del correctors, dose response, FRT cells, YFP quenching, cherry-pick (AID 743402).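 Also: compounds act as correctors raising surface CFTR-F508del before acute activation.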 Particulars: FRT CFTR-F508del YFP iodide quenching, 24 h, channel opened with forskolin and a potentiator; at 26 µM (top of the series) unless noted.
Take `CO/N=C\CC(=O)Nc1ccc(Cl)cc1Cl`: the activity change, negative = more quenching (active) was inactive: -3.12%.

For `C[C@@H]1CN([C@@H](C)CO)C(=O)c2cccc(NC(=O)NC3CCCCC3)c2O[C@@H]1CN(C)Cc1ccc(Cl)c(Cl)c1`, the activity change, negative = more quenching (active) is inactive: 14.3%.

As to `Cc1ccc(S(=O)(=O)N[C@H](C(=O)OCC(=O)NC(=O)C2CCCCC2)C(C)C)cc1`, the activity change, negative = more quenching (active) was inactive: 12.9%.

Regarding `COc1ccc(C2c3ccc4ccccc4c3Oc3ncn(CCCO)c(=N)c32)cc1OC` (centres undefined), the activity change, negative = more quenching (active) was inactive: -6.46%.

Turning to `N#CC1=C(N)OC2=C(CCc3ccccc32)C1c1ccccc1Cl` (centres undefined), the activity change, negative = more quenching (active) is inactive: -10%.

For `Oc1c(Cl)cc(CN2CCOCC2)c2cccnc12`, the activity change, negative = more quenching (active) is inactive: -3.85%.

Turning to `CC(C)(C)C(=O)Nc1ccc(S(=O)(=O)NC2=NCCCCC2)cc1`, the activity change, negative = more quenching (active) is inactive: -3.12%.

Consider `O=C(Nc1cccc(C2=NCCN2)c1)Nc1cccc(C2=NCCN2)c1`, for which the activity change, negative = more quenching (active) was inactive: 0%.

On to `Cc1cc(C(=O)NNC(=O)c2ccc(Cl)c(S(N)(=O)=O)c2)c(C)o1`, for which the activity change, negative = more quenching (active) is inactive: 18.1%.

Turning to `CCc1ccccc1N(C)S(=O)(=O)c1ccc(-c2cc(C)no2)s1`, the activity change, negative = more quenching (active) was inactive: 5.05%.

For `CCCCN(C(=O)c1cc(S(=O)(=O)N2CCCCC2)ccc1Cl)c1c(N)n(CC(C)C)c(=O)[nH]c1=O`, the activity change, negative = more quenching (active) was inactive: 10%.

In the case of `COc1ccc(NS(=O)(=O)c2cc(NC(=O)Cc3c(F)cccc3Cl)ccc2OC)cc1`, the activity change, negative = more quenching (active) is inactive: 22.7%.

Turning to `Cc1nn2cc(-c3cccc(Cl)c3)cnc2c1Br`, the activity change, negative = more quenching (active) was inactive: 9.58%.

Take `CC1(C(=O)NCc2ccccc2)Cc2c(-c3ccc(C(N)=O)cc3)ccnc2O1` (centres undefined): the activity change, negative = more quenching (active) is inactive: -3.33%.

Turning to `COc1cc(/C=C/C(=O)c2ccc3c(c2)OCO3)cc(Cl)c1O`, the activity change, negative = more quenching (active) was inactive: -24%.

`CCOC1=C2CN(S(=O)(=O)c3ccc(C)cc3)CC[C@@H]2N(S(=O)(=O)c2ccc(C)cc2)[C@H](c2ccccc2)C1`: the activity change, negative = more quenching (active) was inactive: -26.7%.

On to `COc1ccc(S(=O)(=O)Nc2cccc3ccc(O)cc23)cc1`, for which the activity change, negative = more quenching (active) was inactive: 3.12%.

On to `CCN(CC)c1ccc2c(cc1=O)[C@@H](NC)CCc1cc(OC)c(OC)c(OC)c1-2`, for which the activity change, negative = more quenching (active) was inactive: 10%.

`O=C(Nc1ccc(Br)cn1)c1cccc2ccccc12`: the activity change, negative = more quenching (active) is inactive: -20%.

`COc1cccc(S(=O)(=O)N(C)C[C@@H]2Oc3cc(C4=CCCC4)ccc3S(=O)(=O)N([C@@H](C)CO)C[C@H]2C)c1`: the activity change, negative = more quenching (active) was inactive: 5.3%.

For the molecule `O=S(=O)(c1ccc(OCc2ccc(Br)cc2)cc1)N1CCOCC1`, the activity change, negative = more quenching (active) is inactive: 17.9%.

As to `CC(=O)Nc1ccc(Nc2c3ccccc3nc3ccccc23)cc1`, the activity change, negative = more quenching (active) is inactive: -6.25%.

In the case of `CC1CN(S(=O)(=O)c2ccc(C(=O)N3CCc4ccccc43)cc2)CC(C)O1` (centres undefined), the activity change, negative = more quenching (active) was inactive: 10%.

In the case of `CC(C)Nc1ccc(Nc2ccnc3cc4ccccc4cc23)cc1`, the activity change, negative = more quenching (active) was inactive: -20%.

`COc1ccc2c3c([nH]c2c1)[C@H](CO)N(S(C)(=O)=O)CC31CCN(Cc2cccc(F)c2)CC1`: the activity change, negative = more quenching (active) is inactive: -6.46%.

In the case of `O=C(CN1CCOc2ccccc21)NCc1ccc(Cl)cc1`, the activity change, negative = more quenching (active) was inactive: 10%.

For the molecule `O=C(CNC1CCCCC1)NN=C(c1ccccc1)c1ccccc1`, the activity change, negative = more quenching (active) was inactive: 13.9%.

As for `CN(CC(=O)Nc1ccc(Cl)c(C(F)(F)F)c1)C(=O)CCN1C(=O)C2CCCCC2C1=O` (centres undefined), the activity change, negative = more quenching (active) is inactive: 12.9%.

For the molecule `COc1ccccc1C#Cc1ccc2c(c1)O[C@H](CN(C)Cc1cccnc1)[C@H](C)CN([C@@H](C)CO)S2(=O)=O`, the activity change, negative = more quenching (active) was inactive: 13.8%.

As to `CC(C)CC#Cc1ccc([C@@H]2[C@@H](CO)N3CCCCN(C(=O)NC4CCCC4)C[C@H]23)cc1`, the activity change, negative = more quenching (active) was inactive: 3.12%.

Consider `Brc1ccc2c(c1)C(C1=NCCN1)c1ccccc1CS2` (centres undefined), for which the activity change, negative = more quenching (active) was inactive: 23.3%.

`CN1c2ccc(-c3ccc(C#N)cc3)cc2[C@H]2[C@H](CCN2S(=O)(=O)c2cccc(F)c2)[C@@H]1CO`: the activity change, negative = more quenching (active) is inactive: 3.57%.

As to `CN(Cc1ccco1)c1ncnc2ccc(-c3ccc4c(ccn4C)c3)cc12`, the activity change, negative = more quenching (active) is inactive: -20%.

As for `Cc1ccc(OCCNC(=O)c2cccc(S(=O)(=O)NCc3ccccc3)c2)cc1`, the activity change, negative = more quenching (active) is inactive: 3.33%.

As for `CCN(CC)c1ccc(/C=N/NC(=O)c2ccco2)c(O)c1`, the activity change, negative = more quenching (active) is inactive: 10.7%.

As to `O=C1OCC2=C1C(c1ccc3c(c1)OCO3)c1cc3c(cc1O2)OCO3` (centres undefined), the activity change, negative = more quenching (active) is inactive: 3.33%.

Consider `COc1cc(C(=O)Nc2ccc3c(c2)ncn3C)cc(OC)c1OC`, for which the activity change, negative = more quenching (active) is inactive: 3.12%.

In the case of `COc1ccc(N2CCc3c(C)nc4c(OC)cc(OC)cc4c32)cc1`, the activity change, negative = more quenching (active) was inactive: 0%.

Turning to `CCOC(=O)c1ccc(Nc2sc(C(=O)c3cccc([N+](=O)[O-])c3)c(N)c2C#N)cc1`, the activity change, negative = more quenching (active) is inactive: -6.25%.

With `O=C(Nc1ccc(F)cc1)Nc1ccc(N2CCOCC2)c2nonc12`, the activity change, negative = more quenching (active) was inactive: -13.3%.

Regarding `COc1ccc(N=C2C(=O)N3CCCc4cccc2c43)cc1`, the activity change, negative = more quenching (active) is inactive: -1.85%.

As for `OC[C@H]1[C@H](c2ccc(C#CC3(O)CCCC3)cc2)[C@H]2CN(Cc3ccccc3F)CCCCN21`, the activity change, negative = more quenching (active) was inactive: -3.12%.

Regarding `Cc1cc(Br)cn2c(Cc3ccsc3)c(-c3ccc(F)cc3)nc12`, the activity change, negative = more quenching (active) was inactive: 5.42%.

With `C[C@H](CO)N1C[C@H](C)[C@@H](CN(C)Cc2ccc(Cl)c(Cl)c2)Oc2ccc(NC(=O)Nc3ccc(C(F)(F)F)cc3)cc2CC1=O`, the activity change, negative = more quenching (active) was inactive: 10.2% [at 23.5 µM].

Consider `Nc1ccn(C2OC(CO)C(O)C2O)c(=O)n1` (centres undefined), for which the activity change, negative = more quenching (active) is inactive: 13.3%.

On to `COCC(=O)N1CC2(CCN(Cc3ccccc3)CC2)c2c([nH]c3cc(OC)ccc23)[C@H]1CO`, for which the activity change, negative = more quenching (active) is inactive: -3.12%.

Consider `O=C(COC(=O)c1cc([N+](=O)[O-])ccc1N1CCOCC1)Nc1c(Cl)cccc1Cl`, for which the activity change, negative = more quenching (active) was inactive: -23.3%.

In the case of `COc1ccc(CNS(=O)(=O)c2cc(-c3cc(C)no3)ccc2C(C)C)cc1`, the activity change, negative = more quenching (active) was inactive: -3.33%.

For the molecule `CCOc1ccc(C(=O)NNC(=O)CCNC(=O)c2ccc(Br)cc2)cc1OC`, the activity change, negative = more quenching (active) is inactive: 14.3%.

`O=C(NCCCN1CCOCC1)c1sc2cc(Cl)ccc2c1Cl`: the activity change, negative = more quenching (active) was inactive: 6.46%.

As for `CC(C)Nc1nc(Nc2ccc(C#N)cc2)c2sccc2n1`, the activity change, negative = more quenching (active) is inactive: -40%.

Take `CC(=O)N1CCc2cc(S(=O)(=O)N3c4ccccc4CC3C)ccc21` (centres undefined): the activity change, negative = more quenching (active) is inactive: 0%.

With `COc1ccc(NC(=O)C(=O)c2cn(CC(=O)N3CCCC3)c3ccccc23)cc1OC`, the activity change, negative = more quenching (active) is inactive: 0%.

As to `CC(=NNC(=S)N(Cc1ccccn1)Cc1ccccn1)c1cnccn1`, the activity change, negative = more quenching (active) is inactive: -6.25%.
